We go through 78 compounds from PubChem BioAssay AID1307 (SRMLSC, 2008).

Fewer than 10 of roughly 1,200 compounds were called active.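 Rule for the calls: active = inhibition reaching a set limit at one or more tested concentrations; inactive = inhibition under that limit at every dose.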 The list shows a part of the results. Results with a measured potency or affinity are listed apart.

This assay is described as follows: yeast RAM network inhibitors, dose response, S. cerevisiae (AID 1307).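 Note: 0% = DMSO vehicle wells and 100% = 10 µM 1-NA-PP1 control; higher inhibition means more yeast growth since RAM block rescues cells from 5-FOA.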 The note with it: S. cerevisiae RAM network URA3 reporter, 5-FOA growth OD615, stronger effect = higher value, yeast express analog-sensitive mutant Cbk1 kinase; at 100 µM unless noted.
For the compound `Cc1ccc(CN2CCSc3ccc(C(=O)NCc4ccco4)cc32)cc1`, the max inhibition was inactive: 2.83% [at 0.391 µM].

For `CC1(C)CC(C(CCN(Cc2ccccc2)C(=O)c2ccco2)c2ccc(F)cc2)CCO1` (stereo not drawn), the max inhibition is inactive: 4.56% [at 50 µM].

In the case of `O=C(COC(=O)CCN1C(=O)/C(=C\C=C\c2ccccc2)SC1=S)Nc1ccc(Br)cc1`, the max inhibition was inactive: 9.41%.

As to `CCc1oc2ccccc2c1C(=O)c1cc(Br)c(O)c(Br)c1`, the max inhibition was inactive: 2.23% [at 0.782 µM].

With `COc1cccc(NC(=O)C2CC(=O)N(C)C(=Nc3cccc(F)c3)S2)c1` (stereo not drawn), the max inhibition was inactive: 3.67% [at 1.563 µM].

For `C/C=C(/C)C(=O)O[C@@H]1c2c(ccc3ccc(=O)oc23)O[C@@H]1C(C)(C)OC(=O)/C(C)=C\C`, the max inhibition is inactive: 2.13%.

Regarding `Cn1cccc1C(=O)OCc1cc(Cl)cc2c1OCOC2`, the max inhibition was inactive: 1.77% [at 0.391 µM].

Turning to `CCOC(=O)c1sc(-c2ccccc2)cc1NC(=O)c1ccc(S(=O)(=O)N(CCOC)CCOC)cc1`, the max inhibition is inactive: 1.69% [at 12.5 µM].

For `Cc1ccccc1OCC(=O)OCC(=O)c1ccc(OC(=O)c2ccccc2)cc1`, the max inhibition is inactive: 5.18%.

`C=CCSc1nc2ccccc2c2nc(-c3ccccc3)nn12`: the max inhibition was inactive: 2.08% [at 1.563 µM].

For `O=C(OC(C(=O)Nc1cccc(C(F)(F)F)c1)c1ccccc1)C1CCCCC1` (stereo not drawn), the max inhibition was inactive: 3.65% [at 50 µM].

As to `Cn1c(=O)c(/C=C/c2ccc(F)cc2)nc2ccccc21`, the max inhibition is inactive: 2.52% [at 50 µM].

For the compound `O=C(NC(=S)Nc1ccc(Oc2ccc(Cl)cc2)cc1)c1ccccc1`, the max inhibition is inactive: 3.06%.

As to `O=C(Nc1ccc2c(c1)OCO2)c1ccc(COc2ccc3c(c2)CCC3)o1`, the max inhibition is inactive: 2.54%.

On to `CC(C)Cn1c(N)c(-c2nc(C(C)C)c(C(=O)c3ccccc3F)s2)c(=O)n(C)c1=O`, for which the max inhibition is inactive: 7.65%.

As for `Cc1ccc(N=c2oc3cc(O)ccc3cc2C(N)=O)cc1`, the max inhibition is inactive: 5.31%.

For the compound `N/C(Cc1ccc([N+](=O)[O-])cc1)=N\OC(=O)COc1ccc2ccccc2c1`, the max inhibition was inactive: 2.69% [at 0.782 µM].

Consider `O=S(=O)(c1ccc(F)cc1)n1ccc(-c2cccc(OCc3ccc(Cl)cc3Cl)c2)n1`, for which the max inhibition was inactive: 2.15% [at 6.25 µM].

In the case of `CC(C)C(c1nnnn1Cc1ccccc1)N(Cc1ccco1)Cc1cccs1` (stereo not drawn), the max inhibition is inactive: 2.96% [at 1.563 µM].

On to `CCN(CC)S(=O)(=O)c1cccc(-c2nnc(SCCCC(=O)c3ccccc3)o2)c1`, for which the max inhibition was inactive: 3.65%.

In the case of `Cc1ccc(CS/C(Nc2ccccc2C)=C(\C#N)C(=O)NCc2ccco2)c(C)c1`, the max inhibition was inactive: 4.82%.

For `COCCNC(=S)N(CCc1c(C)[nH]c2ccc(F)cc12)Cc1cccs1`, the max inhibition was inactive: 3.04%.

Regarding `CCOc1ccc(NS(=O)(=O)c2ccc(NC(=S)NC(=O)CC(C)C)cc2)cc1`, the max inhibition is inactive: 3.65% [at 0.196 µM].

As for `Cc1ccc(C)c(NC(=O)c2sc(Cl)nc2-c2ccccc2)c1`, the max inhibition was inactive: 2.09% [at 1.563 µM].

For `C/C(CC1CC2=C(CC1(C)C)C(C)(C)CCC2)=N\NC(N)=S` (stereo not drawn), the max inhibition is inactive: 2.04% [at 50 µM].

Regarding `CCOC(=O)CC(=O)CSc1nc(N)c(C#N)c(-c2ccc(Cl)cc2)c1C#N`, the max inhibition is inactive: 9.01%.

With `Cc1ccc(S(=O)(=O)Cn2nnnc2CN(Cc2ccco2)Cc2cccs2)cc1`, the max inhibition was inactive: 2.97% [at 3.125 µM].

For `O=C(COc1cccc(F)c1)N1c2ccccc2Sc2ccccc21`, the max inhibition was inactive: 4.94%.

Turning to `COc1ccccc1OCC(=O)N(Cc1nc(-c2ccccc2)no1)C1CCCCC1`, the max inhibition is inactive: 1.73%.

As to `COc1ccc(S(=O)(=O)Nc2cccc(S(=O)(=O)N3CCCCCC3)c2)cc1`, the max inhibition was inactive: 1.86% [at 25 µM].

In the case of `CCN(CC)S(=O)(=O)c1cc(C(=O)OCC(=O)Nc2cccc(Br)c2)ccc1F`, the max inhibition was inactive: 2.24%.

Regarding `CON/C=C(\C=Nc1ccc(C(F)(F)F)cc1)c1ncc(C(F)(F)F)cc1Cl`, the max inhibition is inactive: 3.78%.

For `c1ccc(-c2nc(CSc3nnnn3-c3ccccc3)cs2)cc1`, the max inhibition was inactive: 3.28% [at 50 µM].

As to `CCOc1ccc2nc(NC(=O)CSc3nc(-c4ccccc4)c(C#N)c(=O)[nH]3)sc2c1`, the max inhibition was inactive: 9.68%.

For the compound `Cc1ccc(S(=O)(=O)c2nc(Nc3ccccc3)sc2Cl)cc1`, the max inhibition is inactive: 2.9% [at 25 µM].

With `Cc1ccc(/C=C2\SC(=S)N(C(Cc3ccccc3)C(=O)O)C2=O)cc1` (stereo not drawn), the max inhibition is inactive: 11.1%.

With `CC(C)=CCc1c2c(c3occ(-c4ccc(O)cc4)c(=O)c3c1O)C=CC(C)(C)O2`, the max inhibition is inactive: 4.93% [at 50 µM].

As for `COc1ccc(OC)c(-c2csc(NC(=O)CSc3ccccc3)n2)c1`, the max inhibition was inactive: 6.24%.

As to `CCOC(=O)CC(=O)CSc1nc(-c2ccccc2)cc(-c2ccc(Cl)cc2)c1C#N`, the max inhibition was inactive: 2.29% [at 12.5 µM].

With `COc1cccc(/C=C/C(=O)OCC(=O)Nc2cc(C(F)(F)F)ccc2Cl)c1`, the max inhibition was inactive: 2.67% [at 50 µM].

Take `Cc1cc(C(=O)CSc2ccc(Cl)cc2)cc(C)c1OC(=S)N(C)C`: the max inhibition was inactive: 2.89% [at 0.782 µM].

For the compound `C=CCOc1c(Br)cc(CNc2ccc(NC(=O)C(C)C)c(OC)c2)cc1OCC`, the max inhibition was inactive: 2.15% [at 3.125 µM].

For `CC(C)OC(=O)/C(C#N)=C/c1cn(Cc2ccccc2)c2ccccc12`, the max inhibition is inactive: 6.2% [at 50 µM].

Take `COc1ccc(-c2ccc(-c3noc(-c4cccc(OC)c4)n3)c(OC)n2)cc1`: the max inhibition was inactive: 4.12%.

Turning to `COc1ccc(/C=C2\SC(=S)N(CC(=O)OCC(=O)Nc3ccc([N+](=O)[O-])cc3OC)C2=O)cc1`, the max inhibition is inactive: 8.9%.

Regarding `COc1cccc(C(=O)Oc2ccccc2/C=C\C(=O)c2cc3ccccc3o2)c1`, the max inhibition is inactive: 8.08%.

As to `O=C(CSc1ccc(Cl)cc1)N1CCN(c2ccc([N+](=O)[O-])cc2Cl)CC1`, the max inhibition is inactive: 2.2% [at 25 µM].

In the case of `N#Cc1nc(Cc2cccc3ccccc23)oc1NCc1ccc(F)cc1`, the max inhibition is inactive: 3.86% [at 0.782 µM].

Consider `CCc1ccccc1N1CCN(S(=O)(=O)c2cc(OC)ccc2OC)CC1`, for which the max inhibition is inactive: 2.16% [at 50 µM].

With `C=C(C)COc1ccc(-c2[nH]ncc2Oc2ccccc2OCC)c(O)c1`, the max inhibition was inactive: 3.4%.

`O=C(CSc1ccc(Cl)cc1Cl)N1CCC(c2nc3ccccc3s2)CC1`: the max inhibition was inactive: 3.93%.

Regarding `Cc1cccc(NC2=Nc3ccccc3N3C2=Nc2c(c(C)nn2-c2ccccc2)C3c2ccc(O)c(O)c2)c1` (stereo not drawn), the max inhibition is inactive: 13.2%.

Turning to `O=C(Nc1ccccc1-c1nnc(SCc2ccccc2)o1)c1ccccc1`, the max inhibition was inactive: 4.39% [at 3.125 µM].

As to `O=C(O)CCCN1C(=O)/C(=C/c2cn(-c3ccccc3)nc2-c2cccs2)SC1=S`, the max inhibition was inactive: 5.08%.

As to `N#Cc1c(N)nc(SCc2ccccn2)c(C#N)c1-c1cccs1`, the max inhibition is inactive: 9.76%.

Consider `CCN(CC)S(=O)(=O)c1cccc(-c2nnc(SCCOc3ccc(Cl)cc3)o2)c1`, for which the max inhibition was inactive: 1.57% [at 12.5 µM].

In the case of `CCOC(=O)C1=C(CSc2nc(-c3ccccc3)ccc2C#N)OC(N)=C(C#N)C1c1ccc(OC)cc1` (stereo not drawn), the max inhibition is inactive: 5.85%.

For the compound `Cc1ccccc1N1C(=O)CC1(C#N)c1ccc(OCc2ccccc2)cc1` (stereo not drawn), the max inhibition is inactive: 3.12% [at 50 µM].

For `Cc1ccc(NC(=O)Cc2ccc(Cl)c(Cl)c2)cc1S(=O)(=O)N(C)C`, the max inhibition is inactive: 1.65%.

Regarding `Cc1ccc(-c2cccc(C(=O)NCCc3ccccc3)n2)c2ccccc12`, the max inhibition was inactive: 6%.

As for `COc1ccc(/C=C/C(=O)OCC(=O)Nc2cccc(Oc3ccccc3)c2)c(OC)c1`, the max inhibition was inactive: 5.19%.

In the case of `CCn1c2ccccc2c2cc(NC(=O)c3cc(OC)c(OC)c(OC)c3)ccc21`, the max inhibition was inactive: 3.36% [at 50 µM].

Take `O=C(/C=C/c1ccc(Br)cc1)N1CCN(c2cccc(C(F)(F)F)c2)CC1`: the max inhibition was inactive: 2.05% [at 0.782 µM].

Consider `CCOCCCNC(=O)/C(C#N)=C/c1ccc(-c2ccc(S(=O)(=O)N3CCOCC3)cc2)o1`, for which the max inhibition is inactive: 2.9% [at 25 µM].

`CCOc1c(Cl)cc(C(=O)Nc2ccccc2-c2ccccc2)cc1Cl`: the max inhibition is inactive: 5.22% [at 0.196 µM].

For `O=S(=O)(Nc1ccc(-c2csc(-c3ccccc3)n2)cc1)c1ccccc1`, the max inhibition is inactive: 2.26% [at 6.25 µM].

On to `C=CCn1c(SCC)nc2sc3c(c2c1=O)CCc1ccccc1-3`, for which the max inhibition is inactive: 4.76% [at 25 µM].

For the compound `CC1=CC(C)(C)n2c(O)c(N=NC(N)=S)c3cccc1c32`, the max inhibition is inactive: 4.85%.

As to `CCN1/C(=C/C=C/C=C/c2sc3ccccc3[n+]2CC)Sc2ccccc21`, the max inhibition was inactive: 9.29%.

Take `FC(F)(F)c1nc(N2CCN(c3ccccc3)CC2)nc2c1CCCCC2`: the max inhibition is inactive: 3.63%.

In the case of `COc1ccccc1OCC(=O)Nc1ccc(-c2nnc(-c3ccco3)o2)cc1`, the max inhibition was inactive: 5.19%.

With `COc1ccc(-c2nc3ccccc3c(=O)n2CCOc2ccccc2C)cc1`, the max inhibition is inactive: 6.26% [at 50 µM].

In the case of `CCCOC(=O)c1ccc(NC(=O)c2c(Cl)ccc(Cl)c2OC)cc1`, the max inhibition was inactive: 2.67% [at 25 µM].

As for `COc1ccc(OC)c(NC(=O)COC(=O)Cc2ccc(-c3ccccc3)cc2)c1`, the max inhibition is inactive: 2.46% [at 0.391 µM].

Regarding `CCCCn1ccnc1C(=O)c1cccc(S(=O)(=O)N2c3ccccc3CC2C)c1` (stereo not drawn), the max inhibition was inactive: 2.55% [at 50 µM].

In the case of `CCOC(=O)C(=Cc1ccc(OCc2ccc([N+](=O)[O-])cc2)c(OC)c1)C(=O)OCC`, the max inhibition was inactive: 3.46%.

As for `CCOC(=O)N1CCN(c2nc(-c3cccc(OC)c3)cc(C(F)(F)F)n2)CC1`, the max inhibition was inactive: 3.81%.

For `Cc1cc(C)c(S(=O)(=O)NCc2ccc3c(c2)cc(C)n3C)c(C)c1`, the max inhibition is inactive: 4.59%.
